This note sets out measurements from publication PMC12271568.

Amino acid sequences for entries named in this document (tags omitted). Residues count along the entry.
UniProt O15455, residues 24-904: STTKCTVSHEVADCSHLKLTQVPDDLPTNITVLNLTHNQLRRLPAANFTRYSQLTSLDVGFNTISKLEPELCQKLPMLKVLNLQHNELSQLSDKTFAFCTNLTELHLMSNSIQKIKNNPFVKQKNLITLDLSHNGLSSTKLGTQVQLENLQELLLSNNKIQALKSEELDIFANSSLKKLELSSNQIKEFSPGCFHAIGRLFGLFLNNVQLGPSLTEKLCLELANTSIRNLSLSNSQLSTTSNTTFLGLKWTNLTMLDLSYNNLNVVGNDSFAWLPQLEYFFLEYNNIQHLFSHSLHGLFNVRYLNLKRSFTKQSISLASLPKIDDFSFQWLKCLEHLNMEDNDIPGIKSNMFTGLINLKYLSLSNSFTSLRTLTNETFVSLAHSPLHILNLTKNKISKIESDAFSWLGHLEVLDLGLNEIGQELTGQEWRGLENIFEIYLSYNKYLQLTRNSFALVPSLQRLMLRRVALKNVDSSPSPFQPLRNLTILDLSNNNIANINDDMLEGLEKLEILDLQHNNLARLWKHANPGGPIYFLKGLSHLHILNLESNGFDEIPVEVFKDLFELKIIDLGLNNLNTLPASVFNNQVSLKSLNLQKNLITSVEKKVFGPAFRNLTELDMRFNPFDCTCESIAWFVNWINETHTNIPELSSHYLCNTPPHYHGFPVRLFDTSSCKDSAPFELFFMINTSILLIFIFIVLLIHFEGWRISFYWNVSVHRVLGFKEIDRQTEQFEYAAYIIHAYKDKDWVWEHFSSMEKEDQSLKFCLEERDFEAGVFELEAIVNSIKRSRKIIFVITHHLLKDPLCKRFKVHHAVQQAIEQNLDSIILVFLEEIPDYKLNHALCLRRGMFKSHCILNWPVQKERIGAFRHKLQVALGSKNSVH
UniProt O96013: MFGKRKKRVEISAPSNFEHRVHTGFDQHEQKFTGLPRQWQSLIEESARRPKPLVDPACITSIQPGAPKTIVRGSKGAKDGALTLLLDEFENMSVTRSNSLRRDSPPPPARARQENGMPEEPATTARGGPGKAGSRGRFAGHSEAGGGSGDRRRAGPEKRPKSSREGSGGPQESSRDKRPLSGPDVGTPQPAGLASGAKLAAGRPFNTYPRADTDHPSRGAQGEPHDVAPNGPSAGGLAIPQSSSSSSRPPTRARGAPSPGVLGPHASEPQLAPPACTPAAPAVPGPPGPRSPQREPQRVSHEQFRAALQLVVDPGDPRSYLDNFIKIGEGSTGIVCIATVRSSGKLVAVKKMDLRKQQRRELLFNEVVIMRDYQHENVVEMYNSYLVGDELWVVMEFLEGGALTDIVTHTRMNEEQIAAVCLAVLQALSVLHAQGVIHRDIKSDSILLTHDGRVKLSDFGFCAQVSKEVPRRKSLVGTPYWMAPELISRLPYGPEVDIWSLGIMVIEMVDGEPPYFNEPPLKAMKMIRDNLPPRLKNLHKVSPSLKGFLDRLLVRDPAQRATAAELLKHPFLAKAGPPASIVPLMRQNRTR
UniProt P14618: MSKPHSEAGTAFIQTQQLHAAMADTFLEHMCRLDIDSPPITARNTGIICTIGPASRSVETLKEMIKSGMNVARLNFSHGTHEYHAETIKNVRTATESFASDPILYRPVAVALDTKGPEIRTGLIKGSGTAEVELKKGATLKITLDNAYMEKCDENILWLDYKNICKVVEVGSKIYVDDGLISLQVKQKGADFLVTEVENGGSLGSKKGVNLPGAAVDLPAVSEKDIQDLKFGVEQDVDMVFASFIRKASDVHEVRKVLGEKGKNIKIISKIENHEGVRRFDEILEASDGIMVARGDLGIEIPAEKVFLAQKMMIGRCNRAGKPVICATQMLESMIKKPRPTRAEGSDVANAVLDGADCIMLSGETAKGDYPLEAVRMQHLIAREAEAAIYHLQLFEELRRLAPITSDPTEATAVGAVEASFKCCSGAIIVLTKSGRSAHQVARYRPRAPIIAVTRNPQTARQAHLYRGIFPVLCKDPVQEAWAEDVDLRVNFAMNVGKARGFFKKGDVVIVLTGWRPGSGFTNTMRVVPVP
UniProt O14744: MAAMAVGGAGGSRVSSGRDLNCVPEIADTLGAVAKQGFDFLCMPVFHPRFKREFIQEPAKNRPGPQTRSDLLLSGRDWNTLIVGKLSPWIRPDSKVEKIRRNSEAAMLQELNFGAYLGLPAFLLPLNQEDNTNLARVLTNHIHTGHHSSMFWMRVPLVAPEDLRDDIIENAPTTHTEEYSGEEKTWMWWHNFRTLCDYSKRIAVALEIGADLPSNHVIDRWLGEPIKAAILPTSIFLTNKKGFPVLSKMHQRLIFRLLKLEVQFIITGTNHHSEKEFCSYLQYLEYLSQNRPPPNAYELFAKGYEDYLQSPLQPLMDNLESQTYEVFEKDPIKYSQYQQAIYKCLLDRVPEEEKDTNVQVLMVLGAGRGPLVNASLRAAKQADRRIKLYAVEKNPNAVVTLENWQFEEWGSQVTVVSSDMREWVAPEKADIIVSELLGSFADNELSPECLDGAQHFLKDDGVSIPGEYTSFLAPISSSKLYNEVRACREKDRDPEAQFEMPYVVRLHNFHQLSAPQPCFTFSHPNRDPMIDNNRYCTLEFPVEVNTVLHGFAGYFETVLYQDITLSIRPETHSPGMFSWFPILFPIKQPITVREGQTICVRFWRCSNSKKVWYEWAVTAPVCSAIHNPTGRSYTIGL

The target of experiment [1] is Flag-TLR3 (Toll-like receptor 3) (UniProt O15455). Description: affinity purification with mass spectrometry; nuclear and cytoplasmic fractions of Panc1 cells overexpressing TLR3; anti-Flag M2 beads; eluted with IP lysis buffer at 98 °C for 10 min; SDS-PAGE, silver stain, bands cut, nanoLC-MS/MS.
Experiment [2] has the same target. Description: affinity purification with mass spectrometry; Panc1 cells with mock and Flag-TLR3 overexpression; anti-Flag M2 beads; eluted with sample buffer at 98 °C for 10 min; SDS-PAGE, silver stain, bands cut, nanoLC-MS/MS; TLR3-binding proteins in the nucleus.

These are yes or no findings as the source states them, for the method shown. In cells and extracts the contact can be indirect. A yes stands for co-enrichment or nearness to the bait. Other partners may have been found.

Take PAK4 (from UniProt O96013 1-591): the binding entry in experiment [1] is listed as “binds”. Still for that read-out and setting: the value for PKM (from UniProt P14618 1-531) was “binds”.

For the molecule “protein arginine methyltransferase 5 (PRMT5) (from UniProt O14744 1-637)”, in experiment [2], the binding result is listed as “binds”.

B1: RIOK1 (protein, UniProt Q9BRS2 1-568)
chain: MDYRRLLMSRVVPGQFDDADSSDSENRDLKTVKEKDDILFEDLQDNVNENGEGEIEDEEEEGYDDDDDDWDWDEGVGKLAKGYVWNGGSNPQANRQTSDSSSAKMSTPADKVLRKFENKINLDKLNVTDSVINKVTEKSRQKEADMYRIKDKADRATVEQVLDPRTRMILFKMLTRGIITEINGCISTGKEANVYHASTANGESRAIKIYKTSILVFKDRDKYVSGEFRFRHGYCKGNPRKMVKTWAEKEMRNLIRLNTAEIPCPEPIMLRSHVLVMSFIGKDDMPAPLLKNVQLSESKARELYLQVIQYMRRMYQDARLVHADLSEFNMLYHGGGVYIIDVSQSVEHDHPHALEFLRKDCANVNDFFMRHSVAVMTVRELFEFVTDPSITHENMDAYLSKAMEIASQRTKEERSSQDHVDEEVFKRAYIPRTLNEVKNYERDMDIIMKLKEEDMAMNAQQDNILYQTVTGLKKDLSGVQKVPALLENQVEERTCSDSEDIGSSECSDTDSEEQGDHARPKKHTTDPDIDKKERKKMVKEAQREKRKNKIPKHVKKRKEKTAKTKKGK
With B1, the binding result in experiment [1] is given as “binds”.
